Results published in the supplement of paper PMC10849652.
The other results are listed elsewhere or left out.

Chains of the proteins cited; added tags and fusions are not shown. Lines headed by an entry give the natural chain unless they say otherwise; changes in a name come on top.
UniProt Q9Y5Z9: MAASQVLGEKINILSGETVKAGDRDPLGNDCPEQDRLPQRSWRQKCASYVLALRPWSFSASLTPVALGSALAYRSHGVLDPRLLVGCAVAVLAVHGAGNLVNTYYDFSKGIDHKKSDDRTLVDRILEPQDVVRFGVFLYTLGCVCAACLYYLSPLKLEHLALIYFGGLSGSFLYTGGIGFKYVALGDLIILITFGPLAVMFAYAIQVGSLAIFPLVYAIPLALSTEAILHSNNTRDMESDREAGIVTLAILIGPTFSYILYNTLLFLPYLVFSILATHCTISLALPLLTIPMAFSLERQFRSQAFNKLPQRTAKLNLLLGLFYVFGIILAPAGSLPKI
UniProt Q14694, whole entry, looked up: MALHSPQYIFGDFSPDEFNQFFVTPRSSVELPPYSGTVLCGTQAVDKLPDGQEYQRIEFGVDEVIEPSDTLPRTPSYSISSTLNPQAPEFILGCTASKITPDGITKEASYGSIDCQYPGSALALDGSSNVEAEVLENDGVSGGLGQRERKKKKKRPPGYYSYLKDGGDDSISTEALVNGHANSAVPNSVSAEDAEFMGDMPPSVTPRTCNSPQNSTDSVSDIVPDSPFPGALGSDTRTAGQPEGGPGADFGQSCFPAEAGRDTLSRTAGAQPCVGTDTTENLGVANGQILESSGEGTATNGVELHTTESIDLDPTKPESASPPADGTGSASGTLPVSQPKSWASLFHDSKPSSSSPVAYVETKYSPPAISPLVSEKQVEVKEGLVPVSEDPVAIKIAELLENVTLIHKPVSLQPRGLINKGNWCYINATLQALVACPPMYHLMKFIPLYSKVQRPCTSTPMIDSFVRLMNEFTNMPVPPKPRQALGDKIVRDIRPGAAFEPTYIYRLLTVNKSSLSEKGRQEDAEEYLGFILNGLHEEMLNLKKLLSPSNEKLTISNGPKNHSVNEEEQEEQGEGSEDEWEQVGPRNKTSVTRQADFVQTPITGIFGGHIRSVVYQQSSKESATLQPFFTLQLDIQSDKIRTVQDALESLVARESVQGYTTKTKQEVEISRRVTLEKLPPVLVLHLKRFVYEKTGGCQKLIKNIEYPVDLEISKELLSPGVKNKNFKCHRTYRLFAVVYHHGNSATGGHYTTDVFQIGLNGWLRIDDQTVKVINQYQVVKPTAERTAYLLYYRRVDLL
UniProt Q6PHR2: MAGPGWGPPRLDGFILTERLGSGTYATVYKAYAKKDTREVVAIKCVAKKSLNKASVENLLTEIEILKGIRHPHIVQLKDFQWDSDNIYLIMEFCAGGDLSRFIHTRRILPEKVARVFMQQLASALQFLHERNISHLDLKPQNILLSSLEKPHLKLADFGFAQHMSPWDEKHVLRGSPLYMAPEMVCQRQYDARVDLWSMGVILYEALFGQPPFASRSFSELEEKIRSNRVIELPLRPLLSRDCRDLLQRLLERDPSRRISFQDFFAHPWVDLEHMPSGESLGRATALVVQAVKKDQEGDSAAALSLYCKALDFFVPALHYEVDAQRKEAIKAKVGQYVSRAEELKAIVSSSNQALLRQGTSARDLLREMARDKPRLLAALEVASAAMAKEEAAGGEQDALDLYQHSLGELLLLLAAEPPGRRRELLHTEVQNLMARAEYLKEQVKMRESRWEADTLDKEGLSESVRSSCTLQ
UniProt Q92900: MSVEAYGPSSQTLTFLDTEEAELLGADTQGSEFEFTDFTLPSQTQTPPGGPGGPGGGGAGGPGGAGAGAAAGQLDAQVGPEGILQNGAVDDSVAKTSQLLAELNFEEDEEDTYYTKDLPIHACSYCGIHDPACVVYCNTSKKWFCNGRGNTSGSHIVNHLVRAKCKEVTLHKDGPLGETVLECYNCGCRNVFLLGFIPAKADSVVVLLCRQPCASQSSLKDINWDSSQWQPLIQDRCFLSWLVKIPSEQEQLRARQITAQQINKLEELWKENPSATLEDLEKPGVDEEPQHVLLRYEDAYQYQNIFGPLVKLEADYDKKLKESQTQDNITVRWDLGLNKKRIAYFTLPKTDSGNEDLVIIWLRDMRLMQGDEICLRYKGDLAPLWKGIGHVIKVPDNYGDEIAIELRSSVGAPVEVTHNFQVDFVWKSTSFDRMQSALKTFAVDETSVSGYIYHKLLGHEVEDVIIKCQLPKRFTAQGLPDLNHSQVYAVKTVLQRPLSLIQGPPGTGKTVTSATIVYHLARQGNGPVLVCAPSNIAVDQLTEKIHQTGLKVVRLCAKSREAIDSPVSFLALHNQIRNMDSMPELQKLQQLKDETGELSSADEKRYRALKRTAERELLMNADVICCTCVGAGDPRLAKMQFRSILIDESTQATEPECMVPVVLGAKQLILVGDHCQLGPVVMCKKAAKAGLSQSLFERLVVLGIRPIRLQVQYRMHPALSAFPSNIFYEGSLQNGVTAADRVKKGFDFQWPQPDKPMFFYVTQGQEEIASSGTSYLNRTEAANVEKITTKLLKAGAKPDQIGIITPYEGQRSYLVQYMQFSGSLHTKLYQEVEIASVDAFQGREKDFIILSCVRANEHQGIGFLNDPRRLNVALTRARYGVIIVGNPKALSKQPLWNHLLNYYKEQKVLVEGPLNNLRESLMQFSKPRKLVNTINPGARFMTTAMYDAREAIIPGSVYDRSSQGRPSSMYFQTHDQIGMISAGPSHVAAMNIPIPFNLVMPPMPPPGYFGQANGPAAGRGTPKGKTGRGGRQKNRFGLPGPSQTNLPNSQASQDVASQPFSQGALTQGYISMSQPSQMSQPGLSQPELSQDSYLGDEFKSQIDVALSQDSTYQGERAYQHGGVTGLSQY
UniProt Q8IWV8: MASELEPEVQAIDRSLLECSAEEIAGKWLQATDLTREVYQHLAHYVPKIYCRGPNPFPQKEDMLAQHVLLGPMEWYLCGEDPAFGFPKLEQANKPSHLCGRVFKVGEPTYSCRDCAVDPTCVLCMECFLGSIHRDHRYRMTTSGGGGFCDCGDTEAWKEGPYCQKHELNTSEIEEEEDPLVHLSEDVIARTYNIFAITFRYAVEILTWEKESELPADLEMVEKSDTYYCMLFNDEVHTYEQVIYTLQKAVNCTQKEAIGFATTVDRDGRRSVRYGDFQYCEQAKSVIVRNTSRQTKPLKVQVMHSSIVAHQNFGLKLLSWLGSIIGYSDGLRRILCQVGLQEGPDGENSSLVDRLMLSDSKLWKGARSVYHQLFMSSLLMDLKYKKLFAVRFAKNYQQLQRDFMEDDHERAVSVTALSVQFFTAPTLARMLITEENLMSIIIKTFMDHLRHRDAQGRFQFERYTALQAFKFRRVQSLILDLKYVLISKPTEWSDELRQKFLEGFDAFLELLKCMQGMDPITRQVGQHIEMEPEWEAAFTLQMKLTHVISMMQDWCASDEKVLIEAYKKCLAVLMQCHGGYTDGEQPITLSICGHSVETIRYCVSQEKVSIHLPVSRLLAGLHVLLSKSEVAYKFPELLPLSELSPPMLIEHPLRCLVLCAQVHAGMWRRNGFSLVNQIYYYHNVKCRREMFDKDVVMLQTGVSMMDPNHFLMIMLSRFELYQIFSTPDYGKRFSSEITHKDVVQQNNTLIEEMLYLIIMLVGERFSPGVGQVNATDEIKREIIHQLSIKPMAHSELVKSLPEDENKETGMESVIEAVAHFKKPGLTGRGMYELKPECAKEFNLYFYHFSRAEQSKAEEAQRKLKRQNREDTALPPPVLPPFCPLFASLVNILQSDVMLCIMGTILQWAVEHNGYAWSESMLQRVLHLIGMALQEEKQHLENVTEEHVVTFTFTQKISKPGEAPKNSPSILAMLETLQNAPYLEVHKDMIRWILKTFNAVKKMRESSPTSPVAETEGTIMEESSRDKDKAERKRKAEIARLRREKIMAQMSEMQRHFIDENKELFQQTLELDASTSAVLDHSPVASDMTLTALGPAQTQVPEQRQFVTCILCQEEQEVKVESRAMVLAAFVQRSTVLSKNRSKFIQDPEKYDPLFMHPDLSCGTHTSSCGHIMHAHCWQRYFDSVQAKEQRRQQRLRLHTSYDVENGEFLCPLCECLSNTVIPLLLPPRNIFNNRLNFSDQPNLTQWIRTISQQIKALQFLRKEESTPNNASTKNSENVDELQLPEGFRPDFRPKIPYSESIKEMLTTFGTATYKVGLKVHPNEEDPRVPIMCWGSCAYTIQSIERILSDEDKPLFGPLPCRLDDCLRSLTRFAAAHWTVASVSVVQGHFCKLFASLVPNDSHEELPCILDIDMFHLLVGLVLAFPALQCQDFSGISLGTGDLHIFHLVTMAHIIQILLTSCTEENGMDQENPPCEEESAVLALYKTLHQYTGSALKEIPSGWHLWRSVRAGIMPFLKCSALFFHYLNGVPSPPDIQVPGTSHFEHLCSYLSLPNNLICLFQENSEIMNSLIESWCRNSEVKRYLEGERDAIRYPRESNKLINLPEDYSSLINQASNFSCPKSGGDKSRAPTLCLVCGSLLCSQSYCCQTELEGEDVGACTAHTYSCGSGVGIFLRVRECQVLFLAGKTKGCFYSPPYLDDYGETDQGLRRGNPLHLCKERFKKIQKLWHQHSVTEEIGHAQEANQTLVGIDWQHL
UniProt P17480: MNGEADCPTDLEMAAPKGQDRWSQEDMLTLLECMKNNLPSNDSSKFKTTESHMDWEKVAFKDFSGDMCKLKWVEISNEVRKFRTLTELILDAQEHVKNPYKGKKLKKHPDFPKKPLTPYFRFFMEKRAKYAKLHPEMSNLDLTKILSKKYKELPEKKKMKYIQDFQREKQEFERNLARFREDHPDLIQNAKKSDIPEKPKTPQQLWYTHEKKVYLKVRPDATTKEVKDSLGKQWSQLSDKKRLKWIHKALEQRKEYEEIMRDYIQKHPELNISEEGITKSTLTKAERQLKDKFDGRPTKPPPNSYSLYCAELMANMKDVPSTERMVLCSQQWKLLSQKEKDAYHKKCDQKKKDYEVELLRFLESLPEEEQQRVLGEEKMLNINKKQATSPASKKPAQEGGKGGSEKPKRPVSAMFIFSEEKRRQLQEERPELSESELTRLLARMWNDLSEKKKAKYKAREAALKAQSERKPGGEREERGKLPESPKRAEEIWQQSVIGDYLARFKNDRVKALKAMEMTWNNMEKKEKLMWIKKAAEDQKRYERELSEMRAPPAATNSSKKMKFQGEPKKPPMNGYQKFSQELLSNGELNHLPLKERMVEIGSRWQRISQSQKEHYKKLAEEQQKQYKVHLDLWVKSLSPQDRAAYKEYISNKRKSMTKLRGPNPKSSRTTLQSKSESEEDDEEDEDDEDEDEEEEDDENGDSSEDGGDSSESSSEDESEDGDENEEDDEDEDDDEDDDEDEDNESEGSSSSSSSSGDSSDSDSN
UniProt Q9NQZ2: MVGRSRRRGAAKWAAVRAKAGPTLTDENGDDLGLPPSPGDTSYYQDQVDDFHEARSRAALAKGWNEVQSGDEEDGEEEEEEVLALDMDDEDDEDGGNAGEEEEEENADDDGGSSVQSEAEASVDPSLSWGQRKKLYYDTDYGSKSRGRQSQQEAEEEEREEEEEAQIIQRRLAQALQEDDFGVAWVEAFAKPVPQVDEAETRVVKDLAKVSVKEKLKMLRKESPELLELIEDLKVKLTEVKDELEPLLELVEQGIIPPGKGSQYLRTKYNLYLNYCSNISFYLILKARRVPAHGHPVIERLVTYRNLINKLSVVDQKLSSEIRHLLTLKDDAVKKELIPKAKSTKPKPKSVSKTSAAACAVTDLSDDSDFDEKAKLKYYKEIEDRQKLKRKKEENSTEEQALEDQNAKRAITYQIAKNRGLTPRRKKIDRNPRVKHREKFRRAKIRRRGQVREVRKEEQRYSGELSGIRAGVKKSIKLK
UniProt A6NIH7: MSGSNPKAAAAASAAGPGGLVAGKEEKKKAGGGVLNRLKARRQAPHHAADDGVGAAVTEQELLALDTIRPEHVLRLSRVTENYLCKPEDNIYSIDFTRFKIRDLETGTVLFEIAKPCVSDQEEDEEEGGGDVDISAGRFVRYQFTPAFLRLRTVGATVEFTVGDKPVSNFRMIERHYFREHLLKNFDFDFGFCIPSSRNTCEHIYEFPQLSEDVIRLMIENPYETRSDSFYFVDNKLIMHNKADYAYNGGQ
UniProt Q9H1C4: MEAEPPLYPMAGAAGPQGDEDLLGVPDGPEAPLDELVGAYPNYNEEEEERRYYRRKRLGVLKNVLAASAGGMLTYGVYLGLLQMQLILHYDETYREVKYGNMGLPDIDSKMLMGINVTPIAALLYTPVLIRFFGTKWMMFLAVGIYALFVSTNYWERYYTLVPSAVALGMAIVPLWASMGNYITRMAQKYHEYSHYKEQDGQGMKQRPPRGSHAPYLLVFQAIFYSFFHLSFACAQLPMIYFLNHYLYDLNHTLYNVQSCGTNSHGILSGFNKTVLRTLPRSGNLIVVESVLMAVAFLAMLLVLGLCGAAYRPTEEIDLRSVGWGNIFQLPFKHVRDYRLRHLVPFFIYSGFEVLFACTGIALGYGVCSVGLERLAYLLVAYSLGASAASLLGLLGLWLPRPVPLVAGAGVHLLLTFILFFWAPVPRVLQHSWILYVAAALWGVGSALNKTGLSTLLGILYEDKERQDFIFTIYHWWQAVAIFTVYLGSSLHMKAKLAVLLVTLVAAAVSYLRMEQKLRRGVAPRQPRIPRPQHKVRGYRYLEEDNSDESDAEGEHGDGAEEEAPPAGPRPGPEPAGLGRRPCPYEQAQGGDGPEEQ

Tests used:
Assay in all cases: log2 fold change, soluble protein after heating vs DMSO (PISA); higher = thermal stabilisation; K562 cells, 10 uM, 30 min; active = over 0.2 and 3.5 SD of the protein, either way, in both replicates (recomputed)
bafetinib = compound: Cc1ccc(NC(=O)c2ccc(CN3CC[C@H](N(C)C)C3)c(C(F)(F)F)c2)cc1Nc1nccc(-c2cncnc2)n1 [bafetinib]
Outline: (§1)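 Aliquots of K562 cells (2×10^6 cells/mL) treated with 10 μM compound for 30 min were heated for 3 min over 48°C-58°C. After pooling and extraction in PBS with 0.5% NP-40 at 4°C, soluble protein from a 21,000xg, 90 min spin was quantified by TMTpro 16plex LC-MS/MS with channel sums equalised. Thermal stability is expressed against control samples, from duplicates, as a log2 fold change.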

[1] = compound: Cc1cccc(CC(=O)N2CCc3c2ccc(-c2cn(C)c4ncnc(N)c24)c3F)n1
Outline: as §1

nilotinib = compound: Cc1cn(-c2cc(NC(=O)c3ccc(C)c(Nc4nccc(-c5cccnc5)n4)c3)cc(C(F)(F)F)c2)cn1 [nilotinib]
Outline: as §1

[2] = compound: Cc1nc(Nc2n[nH]c3c2CN(C(=O)N[C@H](CN(C)C)c2ccccc2)C3(C)C)c2sccc2n1
Outline: as §1

dasatinib = compound: Cc1nc(Nc2ncc(C(=O)Nc3c(C)cccc3Cl)s2)cc(N2CCN(CCO)CC2)n1 [dasatinib]
Outline: as §1

[3] = compound: Cc1ncc(-c2ccnc(Nc3ccc(S(C)(=O)=O)cc3)n2)n1C(C)C
Outline: as §1

[4] = compound: Cn1cc(-c2ccc3c(c2)CCN3C(=O)Cc2cccc(C(F)(F)F)c2)c2c(N)ncnc21
Outline: as §1

[5] = compound: Cn1cc(-c2ccc3nnc(C(F)(F)c4ccc5ncccc5c4)n3n2)cn1
Outline: as §1

tipifarnib = compound: Cn1cncc1[C@@](N)(c1ccc(Cl)cc1)c1ccc2c(c1)c(-c1cccc(Cl)c1)cc(=O)n2C [tipifarnib]
Outline: as §1

mubritinib = compound: FC(F)(F)c1ccc(/C=C/c2nc(COc3ccc(CCCCn4ccnn4)cc3)co2)cc1 [mubritinib]
Outline: as §1

[6] = compound: NC(=O)Nc1cc(-c2cccc(F)c2)sc1C(=O)N[C@H]1CCCNC1
Outline: as §1

[7] = compound: NC(=O)c1cnc(N[C@@H]2CCCC[C@@H]2N)nc1Nc1cccc(-n2nccn2)c1
Outline: as §1

[8] = compound: NC1(c2ccc(-c3nc4ccn5c(=O)[nH]nc5c4cc3-c3ccccc3)cc2)CCC1
Outline: as §1

[9] = compound: NCC(=O)Nc1ccc(-n2nc(C(F)(F)F)cc2-c2ccc3c(ccc4ccccc43)c2)cc1
Outline: as §1

entinostat = compound: Nc1ccccc1NC(=O)c1ccc(CNC(=O)OCc2cccnc2)cc1 [entinostat]
Outline: as §1

vorinostat = compound: O=C(CCCCCCC(=O)Nc1ccccc1)NO [vorinostat]
Outline: as §1

citarinostat = compound: O=C(CCCCCCNC(=O)c1cnc(N(c2ccccc2)c2ccccc2Cl)nc1)NO [citarinostat]
Outline: as §1

silmitasertib = compound: O=C(O)c1ccc2c(c1)nc(Nc1cccc(Cl)c1)c1ccncc12 [silmitasertib]
Outline: as §1

[10] = compound: c1cc(OCCN2CCCCC2)cc(-c2n[nH]c3ccc(-c4nnc[nH]4)cc23)c1
Outline: as §1

[11] = compound: O=C1NC(=O)C(c2cnc3ccccn23)=C1c1cn2c3c(cc(F)cc13)CN(C(=O)N1CCCCC1)CC2
Outline: as §1

| Target | log2 fold change (bafetinib) | log2 fold change [1] | log2 fold change (nilotinib) | log2 fold change [2] | log2 fold change (dasatinib) | log2 fold change [3] | log2 fold change [4] | log2 fold change [5] | log2 fold change (tipifarnib) | log2 fold change (mubritinib) | log2 fold change [6] | log2 fold change [7] | log2 fold change [8] | log2 fold change [9] | log2 fold change (entinostat) | log2 fold change (vorinostat) | log2 fold change (citarinostat) | log2 fold change (silmitasertib) | log2 fold change [10] | log2 fold change [11] |
| --- | --- | --- | --- | --- | --- | --- | --- | --- | --- | --- | --- | --- | --- | --- | --- | --- | --- | --- | --- | --- |
| UBIAD1 (UniProt Q9Y5Z9) | inactive: -0.004 | inactive: -0.022 | inactive: 0.074 | inactive: 0.004 | inactive: 0.176 | inactive: -0.004 | inactive: 0.052 | inactive: 0.006 | inactive: 0.003 | inactive: -0.144 | inactive: -0.089 | inactive: 0 | inactive: 0.055 | inactive: -0.122 | inactive: -0.076 | inactive: -0.075 | inactive: -0.301 | inactive: 0.013 | inactive: 0.181 |  |
| USP10 isoform 2 (UniProt Q14694) | inactive: 0.012 | inactive: -0.032 | inactive: -0.016 | inactive: -0.033 | inactive: -0.036 | inactive: 0.014 | inactive: -0.06 | inactive: -0.019 | inactive: 0.03 | inactive: -0.034 | inactive: 0 | inactive: -0.033 | inactive: 0.048 | inactive: -0.028 | inactive: 0.019 | inactive: 0.035 | inactive: -0.002 | inactive: 0.027 | inactive: -0.06 | inactive: 0.03 |
| VCP (UniProt P55072) | inactive: -0.009 | inactive: -0.023 | inactive: 0.001 | inactive: 0.01 | inactive: 0.048 | inactive: -0.017 | inactive: 0.007 | inactive: -0.009 | inactive: 0.039 | inactive: 0 | inactive: 0.052 | inactive: 0.013 | inactive: 0.024 | inactive: 0.023 | inactive: -0.019 | inactive: -0.033 | inactive: -0.008 | inactive: -0.026 | inactive: -0.023 | inactive: 0.006 |
| ULK3 isoform 4 (UniProt Q6PHR2) | inactive: 0.249 | inactive: -0.3 |  |  |  |  |  | inactive: 0.051 | inactive: 0.044 |  | inactive: -0.543 |  |  |  | inactive: 0.169 | inactive: 0.17 | inactive: 0.025 |  | inactive: -0.044 | inactive: -0.051 |
| UPF1 (UniProt Q92900) | inactive: -0.02 | inactive: -0.01 | inactive: -0.057 | inactive: 0.043 | inactive: -0.006 | inactive: 0.058 | inactive: -0.003 | inactive: 0.009 | inactive: -0.023 | inactive: 0.003 | inactive: -0.013 | inactive: -0.004 | inactive: 0.031 | inactive: -0.012 | inactive: -0.007 | inactive: 0.005 | inactive: 0.004 | inactive: -0.012 | inactive: -0.05 | inactive: 0.024 |
| UNG (UniProt P13051) | inactive: 0.002 | inactive: -0.016 |  |  | inactive: -0.185 |  | inactive: -0.004 |  |  | inactive: 0.139 | inactive: -0.007 | inactive: -0.043 | inactive: -0.106 | inactive: -0.222 | inactive: 0.053 | inactive: 0.079 |  | inactive: 0.102 |  | inactive: -0.02 |
| USP39 (UniProt Q53GS9) | inactive: 0.037 | inactive: -0.04 | inactive: 0.001 | inactive: -0.075 | inactive: 0.036 | inactive: 0.01 | inactive: -0.055 | inactive: -0.065 | inactive: 0.074 | inactive: -0.017 | inactive: -0.078 | inactive: -0.005 | inactive: 0.048 | inactive: 0.001 | inactive: -0.026 | inactive: 0.048 | inactive: -0.006 | inactive: 0.036 | inactive: -0.085 | inactive: 0.034 |
| UBR2 (UniProt Q8IWV8) | inactive: 0.021 | inactive: 0.072 | inactive: 0.02 | inactive: 0.01 | inactive: -0.107 | inactive: -0.069 | inactive: -0.023 | inactive: 0.058 | inactive: -0.095 | inactive: 0.011 | inactive: -0.007 | inactive: 0.038 | inactive: 0.039 | inactive: 0.007 | inactive: 0.049 | inactive: 0.137 | inactive: 0.05 | inactive: 0.061 | inactive: -0.14 | inactive: 0.044 |
| USP7 (UniProt Q93009) | inactive: -0.018 | inactive: 0.097 | inactive: -0.076 | inactive: -0.113 | inactive: -0.272 | inactive: -0.011 | inactive: 0.101 | inactive: 0.153 | inactive: -0.139 | inactive: 0.068 | inactive: -0.039 | inactive: -0.062 | inactive: -0.263 | inactive: -0.07 | inactive: 0.097 | inactive: 0.182 | inactive: 0.096 | inactive: -0.028 | inactive: 0.046 | inactive: -0.037 |
| UBTF (UniProt P17480) | inactive: 0.042 | inactive: -0.016 |  |  |  |  | inactive: -0.136 | inactive: 0.024 |  | inactive: 0.302 | inactive: 0.049 | inactive: 0.027 | inactive: 0.145 |  | inactive: -0.048 | inactive: 0.109 |  | inactive: 0.107 |  |  |
| VARS (UniProt P26640) | inactive: 0.024 | inactive: -0.014 | inactive: -0.043 | inactive: -0.002 | inactive: -0.039 | inactive: 0.029 | inactive: -0.033 | inactive: -0.054 | inactive: -0.08 | inactive: 0.035 | inactive: -0.01 | inactive: -0.042 | inactive: -0.074 | inactive: -0.033 | inactive: 0.016 | inactive: 0.026 | inactive: 0.041 | inactive: 0.021 | inactive: -0.038 | inactive: 0.016 |
| UBR4 isoform 2 (UniProt Q5T4S7) | inactive: 0.064 | inactive: 0.082 | inactive: -0.09 | inactive: 0.023 | inactive: -0.045 | inactive: 0.016 | inactive: -0.106 | inactive: -0.029 | inactive: -0.069 | inactive: -0.008 | inactive: 0 | inactive: -0.041 | inactive: -0.127 | inactive: -0.003 | inactive: 0.029 | inactive: 0.072 | inactive: 0.027 | inactive: 0.092 | inactive: -0.076 | inactive: 0.117 |
| UFM1 (UniProt P61960) | inactive: 0.045 |  | inactive: -0.011 | inactive: 0.025 | inactive: -0.012 | inactive: 0.026 | inactive: 0.008 | inactive: 0.007 | inactive: -0.061 | inactive: 0.087 | inactive: 0.045 | inactive: -0.135 | inactive: -0.073 | inactive: -0.056 | inactive: 0.004 |  | inactive: 0.056 | inactive: -0.033 | inactive: 0.015 | inactive: -0.083 |
| VCL (UniProt P18206) | inactive: 0.001 | inactive: 0.009 | inactive: 0.015 | inactive: -0.001 | inactive: 0.057 | inactive: 0 | inactive: 0.005 | inactive: 0.022 | inactive: 0.019 | inactive: 0.018 | inactive: 0.045 | inactive: 0.013 | inactive: 0.012 | inactive: 0.057 | inactive: -0.004 | inactive: -0.008 | inactive: 0.024 | inactive: -0.046 | inactive: 0.011 | inactive: -0.006 |
| UTP3 (UniProt Q9NQZ2) | active: 0.689 | inactive: -0.048 |  |  | inactive: 0.168 |  | inactive: -0.208 | inactive: -0.132 | inactive: 0.212 | inactive: -0.228 | inactive: 0.093 | inactive: 0.074 | inactive: 0.286 | inactive: 0.087 | inactive: -0.019 | inactive: -0.06 | inactive: -0.107 | inactive: 0.095 | inactive: -0.41 | inactive: 0.103 |
| UNC119B (UniProt A6NIH7) | inactive: 0.424 | inactive: -0.006 | inactive: 0.16 | inactive: -0.077 | inactive: 0.069 | inactive: 0.173 | inactive: 0.428 | inactive: -0.089 | inactive: -0.143 | inactive: 0.14 | inactive: -0.094 | inactive: 0.039 | inactive: 0.146 | inactive: 0.038 | inactive: 0.012 | inactive: -0.055 | inactive: 0.043 | inactive: 0.031 | inactive: 0.005 |  |
| UNC93B1 (UniProt Q9H1C4) | inactive: -0.082 | inactive: 0.006 | inactive: 0.03 | inactive: -0.147 | inactive: 0.029 | inactive: 0.045 | inactive: -0.098 | inactive: -0.047 | inactive: 0.042 | inactive: 0.177 | inactive: -0.059 | inactive: -0.025 | inactive: -0.079 |  | inactive: 0.015 | inactive: -0.008 | inactive: 0.017 | inactive: -0.049 | inactive: 0.045 | inactive: -0.141 |
